Source: article PMC6385813, “Macrocyclisation of small peptides enabled by oxetane incorporation” (Chemical Science, 2019)

Assay: solution-state NMR NOE conformational study
Format: physicochemical
Settings: d6-DMSO, 30 mM, 298 K, 700 MHz; mixing times 250–800 ms; between Gly3 and Tyr5

Row | Substance | medium-range NOEs (turn formation)
1 | H-LAGAY-OMe [LAGAY-OMe] | only observed in peptide LAGOxAY-OMe
2 | LAGOxAY-OMe [oxetane modified variant of LAGAY methyl ester] | clearly observed
